Measured values from article PMC3698095.
These are yes or no findings as the source states them, for the method shown. Binding seen in cells or lysates may run through a third protein. Some entries that bind do so weakly or less than the wild type.

Protein sequences, listed by entry. Tags and fused reporters are not part of them.
UniProt P10417: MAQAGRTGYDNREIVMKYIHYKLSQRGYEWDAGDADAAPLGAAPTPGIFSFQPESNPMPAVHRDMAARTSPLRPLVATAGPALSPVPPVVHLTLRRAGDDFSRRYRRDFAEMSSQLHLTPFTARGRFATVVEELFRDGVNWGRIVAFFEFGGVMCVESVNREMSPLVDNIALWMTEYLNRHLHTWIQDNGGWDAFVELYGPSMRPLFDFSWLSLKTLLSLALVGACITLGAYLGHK

Tests used:
[1] = target: Bim (mouse (endogenous in mouse liver)) (UniProt O54918); test: co-IP; immunoprecipitation with Bim antibody (2 µg/ml, 4°C, 3 h) from 400 µg crude liver protein in RIPA lysis buffer, protein-A/G-Sepharose, four RIPA washes; blots for Bcl2, Bcl-xL, Bax; HS-Csn8KO and CTL mouse livers
[2] = target: Bcl2 (mouse (endogenous in mouse liver)) (UniProt P10417); test: co-IP; immunoprecipitation with Bcl2 antibody (2 µg/ml, 4°C, 3 h) from 400 µg crude liver protein in RIPA lysis buffer, protein-A/G-Sepharose, four RIPA washes; blots for Bcl2, Bim, Bax; HS-Csn8KO and CTL mouse livers
[3] = target: T1, Bim (mouse (endogenous in mouse liver)), O54918; test: co-IP; immunoprecipitation with Bim antibody (2 µg/ml, 4°C, 3 h) from 400 µg crude liver protein in RIPA lysis buffer, protein-A/G-Sepharose, four RIPA washes; blots for Bcl2, Bcl-xL, Bax; HS-Csn8KO and CTL mouse livers; conditions: remark: other sources report otherwise
T1 chain: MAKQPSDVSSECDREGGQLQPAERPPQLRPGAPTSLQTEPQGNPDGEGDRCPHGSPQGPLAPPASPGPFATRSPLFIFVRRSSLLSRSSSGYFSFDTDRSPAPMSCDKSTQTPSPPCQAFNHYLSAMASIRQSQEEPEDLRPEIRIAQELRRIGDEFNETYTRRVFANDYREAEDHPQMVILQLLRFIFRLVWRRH

For Bcl2 (from UniProt P10417 1-236), the binding [1] was “binds”.

For “extra-long form of Bim (Bim-EL) (from UniProt O54918-1 1-196)”, the binding [2] was “binds”.

B1: Bcl-xL, Q64373-1 1-233 (protein)
chain: MSQSNRELVVDFLSYKLSQKGYSWSQFSDVEENRTEAPEETEAERETPSAINGNPSWHLADSPAVNGATGHSSSLDAREVIPMAAVKQALREAGDEFELRYRRAFSDLTSQLHITPGTAYQSFEQVVNELFRDGVNWGRIVAFFSFGGALCVESVDKEMQVLVSRIASWMATYLNDHLEPWIQENGGWDTFVDLYGNNAAAESRKGQERFNRWFLTGMTVAGVVLLGSLFSRK
For B1, the binding [3] was “no binding”.
